Assay: Textile cleaning tests (launder-O-meter) with fresh and 37° C. stored liquid laundry formulations
Details: for sum of ΔE of multi-stain monitor, T0: freshly prepared, wash 30° C., 60 minutes, 5 g/L; for sum of ΔE of multi-stain monitor, 1 week: stored 1 week at 37° C.; for sum of ΔE of multi-stain monitor, 2 weeks: stored 2 weeks at 37° C.; for sum of ΔE of multi-stain monitor, 4 weeks: stored 4 weeks at 37° C.; for sum of ΔE of multi-stain monitor, 6 weeks: stored 6 weeks at 37° C.; for sum of ΔE of multi-stain monitor, 8 weeks: stored 8 weeks at 37° C.
[1] = base formulation VII. (compound 2.5 wt%, no enzyme)
[2] = base formulation X. (Savinase 16.0L 0.7 wt%, Lipolase 0.2 wt%, compound 2.5 wt%)
[3] = base formulation VIII. (Lipolase 0.2 wt%, compound 2.5 wt%)

Row | Compound | sum of ΔE of multi-stain monitor, T0 [1] | sum of ΔE of multi-stain monitor, 1 week [1] | sum of ΔE of multi-stain monitor, 2 weeks [1] | sum of ΔE of multi-stain monitor, 4 weeks [1] | sum of ΔE of multi-stain monitor, 6 weeks [1] | sum of ΔE of multi-stain monitor, 8 weeks [1] | sum of ΔE of multi-stain monitor, T0 [2] | sum of ΔE of multi-stain monitor, 1 week [2] | sum of ΔE of multi-stain monitor, 2 weeks [2] | sum of ΔE of multi-stain monitor, 4 weeks [2] | sum of ΔE of multi-stain monitor, 6 weeks [2] | sum of ΔE of multi-stain monitor, 8 weeks [2] | sum of ΔE of multi-stain monitor, T0 [3] | sum of ΔE of multi-stain monitor, 1 week [3] | sum of ΔE of multi-stain monitor, 2 weeks [3] | sum of ΔE of multi-stain monitor, 4 weeks [3] | sum of ΔE of multi-stain monitor, 6 weeks [3]
1 | O=C(CC(O)(CC(=O)OCc1ccccc1)C(=O)OCc1ccccc1)OCc1ccccc1 [A.8, Tribenzylcitrate] | 153 | 153 | 152 | 152 | 152 | 151 | 191 | 189 | 185 | 186 | 182 | 176 |  |  |  |  | 
2 | Diethylcitrate [A.7] |  |  |  |  |  |  |  |  |  |  |  |  | 182 | 179 | 179 | 175 | 173
3 | CCOC(=O)C(=O)OCC [B.3, diethyloxalate, reference compound] |  |  |  |  |  |  | 190 | 187 | 182 | 177 | 169 | 162 |  |  |  |  | 
4 | CCOC(=O)CC(CC(=O)OCC)(OC(C)=O)C(=O)OCC [A.5, Acetyltriethylcitrate] | 154 | 155 | 153 | 153 | 152 | 153 | 190 | 187 | 187 | 183 | 180 | 180 |  |  |  |  | 
5 | CCCOC(=O)CC(O)(CC(=O)OCCC)C(=O)OCCC [A.2, Tripropylcitrate] | 152 | 152 | 154 | 152 | 152 | 153 | 189 | 187 | 184 | 182 | 182 | 177 |  |  |  |  | 

Reference: patent publication US20210395651A1, “COMPOUNDS STABILIZING HYDROLASES IN LIQUIDS” (BASF SE, priority 2018, published 2021)
